Experimental data published in patent US10159726B2, “Peptides, combination of peptides and scaffolds for use in immunotherapeutic treatment of various cancers” (Immatics Biotechnologies GmbH, priority 2015, dated 2018).
For some of these results: Expression grades refer to the transcript from which the peptide derives; gene names, where given, were looked up from the sequence.

How the values were obtained:
Parameters in all cases: species or system human
[1] = tested on: source genes of selected peptides; test: Target coverage of source genes in tumor entities based on TCGA Research Network data; conditions: over-expressed = more than 2-fold above the highest 75% percentile of normal organs; for Target coverage, over-expression category of source gene, DLBC (N = 48): Lymphoid neoplasm diffuse large B-cell lymphoma
[2] = tested on: HLA-A*24 molecules of primary tumors; test: Identification and relative LC-MS quantitation of HLA-A*24 tumor-associated peptides presented on tissue samples (XPRESIDENT presentation profiles); conditions: for ENTITIES: Table 9A: selected HLA-A*24-binding tumor-associated peptides, cancer entities on which the peptide was found presented
[3] = tested on: source genes of selected peptides; test: Expression profiling of source genes by in-house RNAseq, tumor vs normal tissues (target coverage); conditions: for Target coverage, over-expression of source gene, AML: AML (N = 7); for Target coverage, over-expression of source gene, AML / Target coverage, over-expression of source gene, BRCA / Target coverage, over-expression of source gene, CLL / Target coverage, over-expression of source gene, CRC / Target coverage, over-expression of source gene, GB / Target coverage, over-expression of source gene, HCC / Target coverage, over-expression of source gene, OC / Target coverage, over-expression of source gene, OSCAR / Target coverage, over-expression of source gene, PC / Target coverage, over-expression of source gene, RCC / Target coverage, over-expression of source gene, SCLC / Target coverage, over-expression of source gene, pNSCLC: share of tumors with more than 1.5-fold higher expression than highest relevant normal tissue, in-house RNASeq; for Target coverage, over-expression of source gene, BRCA: BRCA (N = 10); for Target coverage, over-expression of source gene, CLL: CLL (N = 10); for Target coverage, over-expression of source gene, CRC: CRC (N = 20); for Target coverage, over-expression of source gene, GB: GB (N = 24); for Target coverage, over-expression of source gene, HCC: HCC (N = 15); for Target coverage, over-expression of source gene, OC: OC (N = 12); for Target coverage, over-expression of source gene, OSCAR: OSCAR (N = 11); for Target coverage, over-expression of source gene, PC: PC (N = 26); for Target coverage, over-expression of source gene, RCC: RCC (N = 10); for Target coverage, over-expression of source gene, SCLC: SCLC (N = 10); for Target coverage, over-expression of source gene, pNSCLC: pNSCLC (N = 11); for Target coverage for source genes of selected peptides, GBC_CCC (N = 10): gallbladder adenocarcinoma and cholangiocarcinoma; for Target coverage for source genes of selected peptides, GBC_CCC (N = 10) / Target coverage for source genes of selected peptides, GC (N = 11) / Target coverage for source genes of selected peptides, HNSCC (N = 10) / Target coverage for source genes of selected peptides, MEL (N = 10) / Target coverage for source genes of selected peptides, NHL (N = 10) / Target coverage for source genes of selected peptides, PCA (n = 10) / Target coverage for source genes of selected peptides, UBC (N = 10) / Target coverage for source genes of selected peptides, UTC (N = 10): share of tumors with more than 1.5-fold higher expression than the highest-expressing relevant normal tissue, in-house RNAseq; for Target coverage for source genes of selected peptides, GC (N = 11): gastric cancer; for Target coverage for source genes of selected peptides, HNSCC (N = 10): head and neck small cell carcinoma; for Target coverage for source genes of selected peptides, MEL (N = 10): melanoma; for Target coverage for source genes of selected peptides, NHL (N = 10): non-Hodgkin lymphoma; for Target coverage for source genes of selected peptides, PCA (n = 10): prostate cancer and benign prostate hyperplasia; for Target coverage for source genes of selected peptides, UBC (N = 10): urinary bladder cancer; for Target coverage for source genes of selected peptides, UTC (N = 10): uterine cancer

Row | Substance | Target coverage, over-expression category of source gene, DLBC (N = 48) [1] | ENTITIES [2] | Target coverage, over-expression of source gene, AML [3] | Target coverage, over-expression of source gene, BRCA [3] | Target coverage, over-expression of source gene, CLL [3] | Target coverage, over-expression of source gene, CRC [3] | Target coverage, over-expression of source gene, GB [3] | Target coverage, over-expression of source gene, HCC [3] | Target coverage, over-expression of source gene, OC [3] | Target coverage, over-expression of source gene, OSCAR [3] | Target coverage, over-expression of source gene, PC [3] | Target coverage, over-expression of source gene, RCC [3] | Target coverage, over-expression of source gene, SCLC [3] | Target coverage, over-expression of source gene, pNSCLC [3] | Target coverage for source genes of selected peptides, GBC_CCC (N = 10) [3] | Target coverage for source genes of selected peptides, GC (N = 11) [3] | Target coverage for source genes of selected peptides, HNSCC (N = 10) [3] | Target coverage for source genes of selected peptides, MEL (N = 10) [3] | Target coverage for source genes of selected peptides, NHL (N = 10) [3] | Target coverage for source genes of selected peptides, PCA (n = 10) [3] | further results
1 | 251: peptide found in NCAPG (gene looked up) (VYTKALSSL; listed as Homo sapiens) [compound 251] | A (>=50% of tumors above the cutoff) | NSCLC, HCC | I (<19% over-expression = I) | I (<19% over-expression = I) | I (<19% over-expression = I) | I (<19% over-expression = I) | I (<19% over-expression = I) | I (<19% over-expression = I) | I (<19% over-expression = I) | I (<19% over-expression = I) | I (<19% over-expression = I) | I (<19% over-expression = I) | III (50-69% = III) | I (<19% over-expression = I) |  |  |  |  |  |  | Target coverage, over-expression category of source gene, ACC (N = 79) ([1]; Adrenocortical carcinoma): C (>=5% of tumors above the cutoff, but <20%); Target coverage, over-expression category of source gene, BLCA (N = 408) ([1]; Bladder urothelial carcinoma): B (>=20% of tumors above the cutoff, but <50%); Target coverage, over-expression category of source gene, CESC (N = 307) ([1]; Cervical squamous cell carcinoma and endocervical adenocarcinoma): A (>=50% of tumors above the cutoff); Target coverage, over-expression category of source gene, CHOL (N = 36) ([1]; Cholangiocarcinoma): C (>=5% of tumors above the cutoff, but <20%); Target coverage, over-expression category of source gene, HNSC (N = 521) ([1]; Head and neck squamous cell carcinoma): B (>=20% of tumors above the cutoff, but <50%); Target coverage, over-expression category of source gene, LGG (N = 534) ([1]; Lower grade glioma): C (>=5% of tumors above the cutoff, but <20%); Target coverage, over-expression category of source gene, MESO (N = 87) ([1]; Mesothelioma): C (>=5% of tumors above the cutoff, but <20%)
2 | 191: peptide found in TIGIT (gene looked up) (TYPDGTYTGRIF; listed as Homo sapiens) [compound 191] | A (>=50% of tumors above the cutoff) |  | I (<19% over-expression = I) | I (<19% over-expression = I) | II (20-49% = II) | I (<19% over-expression = I) | I (<19% over-expression = I) | I (<19% over-expression = I) | I (<19% over-expression = I) | I (<19% over-expression = I) | I (<19% over-expression = I) | I (<19% over-expression = I) | I (<19% over-expression = I) | I (<19% over-expression = I) | I (<19% over-expression = I) | I (<19% over-expression = I) | I (<19% over-expression = I) | I (<19% over-expression = I) | II (20-49% = II) | I (<19% over-expression = I) | Peptide Presentation on cancer entities ([2]; Table 9B: selected HLA-A*24 peptides, presentation on additional cancer entities): NSCLC; Target coverage for source genes of selected peptides, UBC (N = 10) [3]: I (<19% over-expression = I); Target coverage for source genes of selected peptides, UTC (N = 10) [3]: I (<19% over-expression = I)
3 | 343: peptide found in AR (gene looked up) (NYLGGTSTI; listed as Homo sapiens) [compound 343] |  | PCA, HCC, GB | I (<19% over-expression = I) | II (20-49% = II) | I (<19% over-expression = I) | I (<19% over-expression = I) | I (<19% over-expression = I) | II (20-49% = II) | I (<19% over-expression = I) | I (<19% over-expression = I) |  | I (<19% over-expression = I) | II (20-49% = II) | I (<19% over-expression = I) | I (<19% over-expression = I) | I (<19% over-expression = I) | I (<19% over-expression = I) | I (<19% over-expression = I) | I (<19% over-expression = I) | IV (>70% = IV) | Target coverage, over-expression category of source gene, KIRP (N = 291) ([1]; Kidney renal papillary cell carcinoma): C (>=5% of tumors above the cutoff, but <20%); Target coverage for source genes of selected peptides, UBC (N = 10) [3]: I (<19% over-expression = I); Target coverage for source genes of selected peptides, UTC (N = 10) [3]: II (20-49% = II)
